This passage reports binding results from patent CN116284368A.

These are yes or no findings as the source states them, for the method shown. Some binding calls cover weakened binding; strength is not graded here.

In assay [1] the target is T1, 重组表达纯化的人MxA蛋白 (10-662Aa, P20591) (human) (UniProt P20591).
T1 sequence (biotinylated with a commercial biotinylation reagent (sites not stated), looked up): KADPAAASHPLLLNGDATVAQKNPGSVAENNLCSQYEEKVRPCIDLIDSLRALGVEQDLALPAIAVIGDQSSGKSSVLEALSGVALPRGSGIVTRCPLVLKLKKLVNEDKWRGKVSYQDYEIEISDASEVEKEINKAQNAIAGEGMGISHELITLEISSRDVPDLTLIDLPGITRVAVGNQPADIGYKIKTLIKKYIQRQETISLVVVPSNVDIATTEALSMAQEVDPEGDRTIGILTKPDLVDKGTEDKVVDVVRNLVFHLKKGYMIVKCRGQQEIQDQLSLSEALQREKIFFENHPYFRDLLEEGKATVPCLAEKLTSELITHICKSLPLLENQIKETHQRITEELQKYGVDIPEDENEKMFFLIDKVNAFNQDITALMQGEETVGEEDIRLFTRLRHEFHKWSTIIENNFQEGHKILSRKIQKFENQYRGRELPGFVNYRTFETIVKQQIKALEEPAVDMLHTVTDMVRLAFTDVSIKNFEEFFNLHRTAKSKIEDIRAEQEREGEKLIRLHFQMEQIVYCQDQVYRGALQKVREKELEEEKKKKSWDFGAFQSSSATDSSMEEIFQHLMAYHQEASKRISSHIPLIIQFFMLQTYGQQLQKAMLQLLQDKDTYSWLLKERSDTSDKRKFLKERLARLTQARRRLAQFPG
As to the kind of experiment: hybridoma screening ELISA with MxA-biotin and avidin-HRP.

The target of assay [2] is T1, 重组表达纯化的人MxA蛋白 (10-662Aa, P20591) (human). As to the kind of experiment: ELISA, antibody coated at 1 ug/mL, biotinylated MxA titrated, streptavidin-HRP, OD450. Background: In an ELISA, binding on a coated surface is turned into a signal by an enzyme label.

B1: 抗体B (MxA-B抗体) (antibody, V domains shown)
VH: QVQLQQSGAELARPGASVKLSCKASGYTFTSYWILWLKQRPGQGLEWIGAVYPGDGDTRYTQKFKGKATLTADKSSSTAYMQLSSLASEDSAVYYCARGYDNSFDYWGQGTTLTVSS
VL: DVLMTQTPLSLPVSLGDQASISCRTSQTIVHSNGNTYLEWYLQKPGQSPKLLIYKVSNRFSGVPDRFSGSGSGTDFTLKISRVEAEDLGVYYCFQGSHVPPTFGAGTKLELK
As for B1, the binding result in assay [1] and in assay [2] was “binds” each time.

B2: 抗体A (MxA-A抗体) (antibody, V domains shown)
VH: EVQLVETGGGLVQPKGSLIVSCAASGFTFNRSAMNWVRQAPGKGLEWVARIRTKSNNYATYYADSVKDRFTISRDDSQSMLYLQMNNLKTEDTAMYYCVGGSDFAYWGQGTLVTVSA
VL: DIQMTQTTSSLSASLGDRVTISCRASQDISNYLNWFQQKPDGTVKLLIYYTSRLYSGVPSRFSGSGSGTDYSLTITNLEQEDIATYFCQQGNTLPLTFGAGTKLELK
Consider B2, for which the binding result in assay [1] and in assay [2] was “binds” throughout.
